According to PubChem BioAssay AID504327 (National Center for Advancing Translational Sciences (NCATS), 2011):
Several values for one entry are separate records, joined by “and”; a condition that tells them apart may be missing. Equal values may be shown once. In all, about 390,000 compounds went through this assay and about 820 (0.21%) were called active. Inconclusive means that the source gave no clear call. Such entries were picked first, then a sample of the others. The call rests on the fitted dose curve; in most records, active means well fitted inhibition curve with a large enough effect; inconclusive means small, poorly fitted or top-dose-only effect, or another doubt; inactive means no such curve, though single readings can be large or run the other way. Where the call is inconclusive, the potency comes from a doubtful curve fit.
On the % scale 0 is the no-effect control and ±100 the full control effect; potency means the concentration at half of the fitted maximal effect.

By UniProt entry, the sequences of proteins in these tests, tags left out.
UniProt Q92830, whole entry, looked up: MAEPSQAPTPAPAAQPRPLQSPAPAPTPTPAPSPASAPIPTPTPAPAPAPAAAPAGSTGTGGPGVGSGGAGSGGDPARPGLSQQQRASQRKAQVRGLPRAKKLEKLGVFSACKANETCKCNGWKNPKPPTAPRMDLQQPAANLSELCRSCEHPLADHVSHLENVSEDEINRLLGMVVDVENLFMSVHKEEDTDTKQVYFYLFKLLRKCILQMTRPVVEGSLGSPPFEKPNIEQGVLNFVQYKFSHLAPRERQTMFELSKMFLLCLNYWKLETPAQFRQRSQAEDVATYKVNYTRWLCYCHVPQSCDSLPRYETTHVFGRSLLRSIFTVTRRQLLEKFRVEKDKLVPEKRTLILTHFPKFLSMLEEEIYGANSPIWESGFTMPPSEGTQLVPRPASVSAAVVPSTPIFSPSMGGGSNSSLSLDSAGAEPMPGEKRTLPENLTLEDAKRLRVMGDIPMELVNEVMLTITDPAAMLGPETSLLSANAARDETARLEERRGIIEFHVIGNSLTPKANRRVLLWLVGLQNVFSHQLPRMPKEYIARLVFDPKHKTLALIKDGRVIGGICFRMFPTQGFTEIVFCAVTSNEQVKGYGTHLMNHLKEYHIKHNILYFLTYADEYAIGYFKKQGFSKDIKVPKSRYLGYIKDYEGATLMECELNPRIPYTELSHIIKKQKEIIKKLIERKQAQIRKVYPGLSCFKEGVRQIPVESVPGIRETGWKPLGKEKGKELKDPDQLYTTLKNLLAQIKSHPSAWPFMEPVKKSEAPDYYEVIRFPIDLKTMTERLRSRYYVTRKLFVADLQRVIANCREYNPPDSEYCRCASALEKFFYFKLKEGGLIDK

Each compound was assayed against Histone acetyltransferase KAT2A (Homo sapiens) (UniProt Q92830) (assay: qHTS Assay for Inhibitors of GCN5L2). Settings: GCN5L2 HAT assay, ThioGlo1 CoA-SH fluorescence; activity change, negative = inhibition: at 58.9 µM (top of the series) unless noted.
How it was run: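 Free CoA generated was detected with ThioGlo1 (50uM) fluorescence at Ex340nm/Em540nm, read immediately and after 20 min at room temperature. Enzyme, 20 nM in HEPES pH 7.5 buffer, saw compounds 15 min before adding 75uM H3(1-25) peptide and 70uM acetyl-CoA.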
In the case of CCOc1cccc2sc(NC(=O)c3ccc(S(=O)(=O)N4CCCCC4)cc3)nc12, the Potency is reported as inconclusive: 39.8 µM [inhibitor, single point]. For O=C(NNC(=O)c1cc2ccccc2cc1O)Nc1ccc(Br)cc1, the Potency was inconclusive: 10 µM [inhibitor, partial curve, poor fit]. For O=C(O)c1cccc(-n2cccc2/C=C2/NC(=O)N(c3ccc(Cl)cc3)C2=O)c1, the Potency was active: 8.91 µM. With O=C(Nc1ccc2nc(-c3ccccc3)oc2c1)c1ccco1 the Potency was inconclusive: 7.08 µM [inhibitor, single point]. For Cc1c(CCC(=O)NC2CC2)c(=O)oc2cc(O)ccc12, the Potency was inconclusive: 35.5 µM [inhibitor, single point]. With COc1ccccc1NC(=O)C1=C(C)Nc2nnnn2C1c1cc(Br)ccc1OC (stereo not given) the Potency was inconclusive: 35.5 µM [inhibitor, single point]. C=CCn1c(Cc2cccs2)nnc1SCC(=O)NCc1ccco1 was tested, and the activity change, negative = inhibition was inconclusive: -62.5% [inhibitor]. CCOC(=O)Cc1cc(=O)n2[nH]c(C(C)(C)C)cc2n1 was tested, and the Potency was inconclusive: 12.6 µM [inhibitor, partial curve, poor fit]. In the case of CS(=O)(=O)Nc1ccc(Cc2ccc(NS(C)(=O)=O)cc2)cc1, the “activity change, negative = inhibition” value is reported as inactive: -2.61%. In the case of CN(C)c1ccc(NC(=S)c2ccc3ccccc3n2)cc1, the Potency is reported as inconclusive: 14.1 µM [inhibitor, partial curve]. O=C(CCN1C(=O)S/C(=C\c2ccc(Cl)cc2)C1=O)Nc1ccc(C(=O)O)cc1 was tested, and the Potency was inconclusive: 25.1 µM [inhibitor, partial curve, poor fit]. For Cc1ccc(OCC(=O)Nc2ccc3c(c2)C(=O)NC3=O)c(C)c1, the Potency was inconclusive: 3.98 µM [inhibitor, partial curve, poor fit]. For CC(C)CC(O)(c1ccccc1)C(CN1CCOCC1)c1ccccc1 (stereo not given), the “activity change, negative = inhibition” value was inactive: -24.8%. In the case of CCOc1ccccc1CNC(=O)c1ccc2c(c1)N(CC)CCS2, the Potency is reported as inconclusive: 3.98 µM [inhibitor, full curve]. In the case of CN(Cc1c(C(=O)N2CCCCCCC2)nc2ccc(Cl)cn12)C1CCOC1 (stereo not given), the Potency is reported as inconclusive: 28.2 µM [inhibitor, single point]. COc1ccc(CC(=O)Nc2ccc(/C(C)=N\NC(=O)c3ccc(Br)o3)cc2)cc1 was tested, and the Potency was inconclusive: 5.01 µM [inhibitor, full curve, poor fit]. For CCCCn1c(SCC(=O)c2ccc(OC)cc2OC)nc2cc(S(N)(=O)=O)ccc21, the “activity change, negative = inhibition” value was inactive: -15.8%. With O=C(Cn1c(-c2cccs2)cc2ccccc21)NCCCN1CCN(c2cccc(Cl)c2)CC1 the “activity change, negative = inhibition” value was inactive: -12%. Cn1c(=O)[nH]c(NC2CCCCC2)c([N+](=O)[O-])c1=O was tested, and the “activity change, negative = inhibition” value was inactive: -6.18%. With O=c1c(Cl)c(Cl)cnn1Cc1nnc(-c2ccccc2Br)o1 the “activity change, negative = inhibition” value was inactive: -13.3%. In the case of O=C1OCCN1C(=O)[C@H]1[C@H](c2ccccc2)C(c2ccc(F)cc2)=NN1c1ccccc1, the Potency is reported as inconclusive: 35.5 µM [inhibitor, partial curve] and inconclusive: 25.1 µM [inhibitor, single point]. For CCOC(=O)NN=C1c2ccccc2-c2ccccc21, the Potency was inconclusive: 7.08 µM [inhibitor, single point]. In the case of COc1ccccc1CNC(=O)c1cc(S(=O)(=O)N2CCCC2)cn1C, the Potency is reported as inconclusive: 31.6 µM [inhibitor, single point]. CCCCCOc1ccc(NC(=O)C(=O)NCCCn2ccnc2)cc1 was tested, and the Potency was inconclusive: 4.47 µM [inhibitor, single point]. For Cc1cc(NC(=O)c2ccc(C)s2)n(-c2ccccc2)n1, the Potency was inconclusive: 31.6 µM [inhibitor, single point]. With CCCn1c(O)c(C=Nc2ccccc2)sc1=S the Potency was inconclusive: 22.4 µM [inhibitor, single point]. With CN1CCN(c2ncnc3ccc(-c4cccc(NS(C)(=O)=O)c4)cc23)CC1 the “activity change, negative = inhibition” value was inactive: -15.7%. O=C(OC1CCOC1=O)c1ccc(Cl)c(S(=O)(=O)N2CCOCC2)c1 (stereo not given) was tested, and the “activity change, negative = inhibition” value was inactive: -0.292%. COc1ccc(C(=O)Nc2nncs2)cc1S(=O)(=O)N1CCOCC1 was tested, and the “activity change, negative = inhibition” value was inactive: 1.18%. In the case of Cc1ccc(C(=O)Nc2ccccc2)cc1S(=O)(=O)Nc1ccc(Cl)cn1, the Potency is reported as inconclusive: 22.4 µM [inhibitor, partial curve, poor fit]. With NC(=O)CC(NC(=O)c1ccccc1)c1ccc(N2CCN(c3ccccn3)CC2)c([N+](=O)[O-])c1 (stereo not given) the Potency was inconclusive: 11.2 µM [inhibitor, partial curve]. COc1ccc(CNCCc2ccc(Cl)cc2)cc1OCc1ccccc1 was tested, and the “activity change, negative = inhibition” value was inactive: -7.13%. With Cc1ccc(C2C(C#N)C(C#N)N3CCCN23)cc1 (stereo not given) the Potency was active: 22.4 µM. For FC(F)(F)c1cc(Oc2ccccc2)ncc1-c1nnc(-c2ccccc2Cl)o1, the Potency was inconclusive: 39.8 µM [inhibitor, single point]. In the case of Cc1ccc2c(c1)-n1c(nc3cc(Cl)ccc3c1=O)C(CC(C)C)NC2=O (stereo not given), the “activity change, negative = inhibition” value is reported as inactive: 3.5%. For CCOc1ccc(NC(=O)CC(Cc2cc(C)cc(C)c2)C(=O)O)cc1 (stereo not given), the “activity change, negative = inhibition” value was inactive: -0.375%. In the case of CN1CCc2c(c3ccccc3n2C)C1, the Potency is reported as inconclusive: 0.224 µM [inhibitor, full curve, poor fit]. With CCCc1nnc(NC(=O)c2c(O)c3cccc4c3n(c2=O)CCC4)s1 the Potency was inconclusive: 0.794 µM [inhibitor, single point]. CC1=C(C#N)C(=O)N(C2CCS(=O)(=O)C2)C(=O)/C1=C\c1ccc(C)o1 (stereo not given) was tested, and the Potency was inconclusive: 25.1 µM [inhibitor, single point]. COCCCNc1ncnc2c1[nH]c1ccccc12 was tested, and the “activity change, negative = inhibition” value was inactive: 1.51%. In the case of CCc1cccc(OCC2Cn3c(nc4c3c(=O)[nH]c(=O)n4C)O2)c1 (stereo not given), the “activity change, negative = inhibition” value is reported as inactive: 0.832%. For Cc1ccc(/C=N/NC(=O)c2ccco2)s1, the Potency was inconclusive: 0.891 µM [inhibitor, single point]. In the case of CCc1c(C)c2ccc3c(c2oc1=O)CN(Cc1ccccc1)CO3, the Potency is reported as inconclusive: 25.1 µM [inhibitor, single point]. With Nc1ccc(S(=O)(=O)c2cccc(N)c2)cc1 the Potency was inconclusive: 44.7 µM [inhibitor, partial curve, poor fit]. With C=CCn1c(SCc2nc3ccccc3[nH]2)nnc1-c1ccc(OC)cc1 the Potency was inconclusive: 0.891 µM [inhibitor, single point]. For Cc1ccccc1/C=C1\SC(=S)N(/N=C/c2cc([N+](=O)[O-])ccc2O)C1=O, the Potency was inconclusive: 25.1 µM [inhibitor, single point]. With Cc1cccc(C2=NN(c3ccccc3)[C@H](CO)[C@H]2c2ccc(F)cc2)c1 the Potency was inconclusive: 39.8 µM [inhibitor, single point]. With COc1ccc(CNc2nc3ccccc3n2C(C)C)cc1 the “activity change, negative = inhibition” value was inactive: 1.53%. With Cn1cc(C(=O)Nc2ccc(F)c(Cl)c2)cn1 the “activity change, negative = inhibition” value was inactive: -9.26%. With COc1cccc(-n2c(SCC(=O)NC3CCS(=O)(=O)C3)nc3ccccc3c2=O)c1 (stereo not given) the Potency was inconclusive: 11.2 µM [inhibitor, partial curve]. For CCOc1ccc(OCCOCCNCCOC)cc1, the “activity change, negative = inhibition” value was inactive: 1.16%. COc1cccc(CNC(=O)c2ccccc2-c2ccccc2)c1 was tested, and the Potency was inconclusive: 8.91 µM [inhibitor, single point]. In the case of O=C(NNC(=S)NCc1ccc(Cl)cc1)c1cccnc1, the Potency is reported as inconclusive: 0.398 µM [inhibitor, single point]. CC(C)C(=O)Nc1cccc(NC(=O)c2cccc(F)c2)c1 was tested, and the “activity change, negative = inhibition” value was inactive: -11.3%. For O=C(NCC(c1ccc2c(c1)OCO2)N1CCN(c2ccccc2)CC1)c1ccccc1F (stereo not given), the “activity change, negative = inhibition” value was inactive: -2.18%. With O=C(O)CCCN1C(=O)/C(=C/C=C/c2ccco2)SC1=S the Potency was inconclusive: 5.01 µM [inhibitor, full curve, poor fit]. In the case of CCOC(=O)c1sc2ncnc(N3CCN(C)CC3)c2c1C, the “activity change, negative = inhibition” value is reported as inactive: 1.96%. In the case of CCOc1ccc(/C=N/NC(=O)C2CCCC2)c(OCC)c1, the Potency is reported as inconclusive: 0.562 µM [inhibitor, single point]. For COc1cc2cc(C(=O)N3CCOCC3)cc(-c3ccc(C)cc3)c2cc1OC, the Potency was inconclusive: 3.16 µM [inhibitor, single point]. Cn1c(=O)c(C(=O)COC(=O)c2cc(-c3ccco3)nc3ccccc23)c(N)n(Cc2ccccc2)c1=O was tested, and the Potency was inconclusive: 14.1 µM [inhibitor, partial curve]. With O=C(NCCc1ccccc1)c1ccc2c(=O)[nH]c3c(C(=O)NCC4CCCO4)sc(=S)n3c2c1 (stereo not given) the Potency was inconclusive: 0.1 µM [inhibitor, full curve, poor fit]. COc1ccc(CN2CC(C(=O)NCCCN3CCOCC3)CC2=O)cc1 (stereo not given) was tested, and the Potency was inconclusive: 7.08 µM [inhibitor, single point]. With O=C(O)c1cccc(Cn2c(Cl)c(/C=N/Nc3ccccc3)sc2=O)c1 the Potency was inconclusive: 35.5 µM [inhibitor, single point]. COc1cc(C(F)(F)F)c(C(=O)N(C)Cc2cc(Cl)cc(Cl)c2)cn1 was tested, and the Potency was inconclusive: 3.16 µM [inhibitor, partial curve, poor fit]. With O=C(c1ccco1)N1CCN(CCCCN2C(=O)c3ccccc3C2=O)CC1 the Potency was inconclusive: 0.631 µM [inhibitor, single point]. In the case of CCCc1cc(-c2ccc3c(c2)COc2c4ccccc4nn2-3)on1, the Potency is reported as inconclusive: 28.2 µM [inhibitor, single point]. With COc1ccc(-n2sc3ccc(F)cc3c2=O)cc1 the Potency was active: 2.82 µM. For O=Cc1ccc(OCCN2CCCC2=O)cc1, the Potency was inconclusive: 39.8 µM [inhibitor, partial curve]. In the case of COc1ccc([N+](=O)[O-])cc1NC(=O)C(C)OC(=O)C1CCC1 (stereo not given), the Potency is reported as inconclusive: 31.6 µM [inhibitor, single point]. For O=C(NC1CCN(C(=O)N2c3ccccc3Sc3ccccc32)CC1)c1ccccc1F, the Potency was inconclusive: 7.08 µM [inhibitor, single point].
